Library screening results

Values are the deposited “Percent Effect”, in %.
How 0% and 100% were set is not recorded. Most values in the screen are low, and negative values occur.
Compounds were drawn at random from those tested, without regard to their results.
Two or more numbers in one place are separate tests of the same structure; such repeats can differ widely.

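Viability assay of Plasmodium falciparum sporozoites; the read-out is not stated. The concentration is filed as 10 mM, unlikely as a test dose, so the dose is not known. Direction is inferred from retests: higher values go with lower viability. Strong results were mostly tested again. About 34,000 compounds were tested under these conditions; 0.84% (about 280) showed 50% or more at least once.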

- Cc1nc2ccccc2c(=O)n1CCC(=O)N1CCCCCC1 | 11.16%
- CC(C)NC(=O)Nc1ccc(CS(C)(=O)=O)cc1 | -18.43% & -21.75% & -1.88%
- CCn1cc(NC(=O)NCC(C)N2CCCC2)cn1 (configuration not stated) | 12.85%
- Cc1noc(C)c1CN1CCCC2(CCN(C(=O)CC3CC3)C2)C1 (configuration not stated) | 6.853%
- CCCn1cc(C(=O)NCC(=O)NC2CC2)c(C)n1 | 2.544%
- O=C(Cc1cccs1)N1CCCCC1c1ccn2ccnc2n1 (configuration not stated) | 5.53%
- O=C(O)C(F)(F)F.O=S(=O)(NCC1COCc2c(-c3ccncc3)nnn2C1)C1CC1 (configuration not stated) | -11.53%
- Cc1ccc(N2CCN(C(=O)C(O)c3cccc(Cl)c3)CC2=O)cc1 (configuration not stated) | -8.839%
- NC(=O)CN1CCC(NC(=O)COc2ccc(Cl)c(Cl)c2)CC1 | 2.633%
- CN1C(=O)CC(c2ccncc2)C12CCN(c1ncccn1)CC2.O=C(O)C(F)(F)F (configuration not stated) | -2.811%
- C/C=C(\C)CN1C[C@H](NC(=O)CCOC)[C@@H](c2ccc(C)o2)C1 | -5.037%
- CC(C)c1ncc(CN2C[C@@H](CN3CCC(O)CC3)[C@@H](CO)C2)cn1 | 4.615%
- COc1ccc(CN(C)CC2(O)CCNC2)cc1 (configuration not stated) | 6.345%
- Cc1cc(C(=O)Nc2nnn[nH]2)ccc1I | -15.67%
- CC(C)c1noc(CCCC(=O)NCC2CCS(=O)(=O)C2)n1 (configuration not stated) | 10.92%
- c1ncn(CC2CCCN2Cc2csc(C3CCCCC3)n2)n1 (configuration not stated) | 0.5587%
- CC(C)Cc1nc(CO)n(-c2ccc3c(c2)OCCO3)n1 | 46.72% & 37.75%
- [H][C@@]12CCN(Cc3ccoc3)C[C@@]1([H])O[C@H](C(=O)NC)C2 | -0.08104%
- COc1c(C2CCCN2C(=O)c2cccc(C)n2)c(C)nn1C (configuration not stated) | -12.17%
- Cc1nc(C2CCCN(C(=O)COCCc3ccccc3)C2)no1 (configuration not stated) | 0.1972%
- CCOC1COC2(CCN(CC3CC3)CC2)C1.O=C(O)C(F)(F)F (configuration not stated) | 0%
- CCC(C)[C@H](NC(=O)c1cc(Br)ccc1-n1cnnn1)C(=O)OC (some centres not stated) | 2.193%
- Cc1oncc1C(=O)N1CCC2(CC1)CC(N1CCOCC1)C2.O=C(O)C(F)(F)F | 4.332%
- CC(C(=O)NCCOc1ccccc1)n1cncn1 (configuration not stated) | 3.188%
- [H][C@]12CC[C@]([H])(CN(CC(=O)N(C)C)C1)N(Cc1cc(F)ccc1F)C2 | -2.713%
- O=C(COc1cccc2c1CCC2=O)NCCc1cccs1 | -3.186%
- Cc1nsc(N2CCN(CC(=O)N(C3CC3)C(C)C3CC3)CC2)n1 (configuration not stated) | 11.16%
- O=C1CN(C(=O)C2CCOC2)CCN1Cc1ccc(Cl)cc1 (configuration not stated) | -8.348%
- COc1c(C)cnc(CN2CCOC(Cn3cc(C)cn3)C2)c1C (configuration not stated) | 3.516%
- CC(C)c1nc(C2CCCN(Cc3nnc(C4CC4)o3)C2)no1 (configuration not stated) | -38.73%
- [H][C@@]12CS(=O)(=O)C[C@]1([H])N(Cc1ncc[nH]1)CCN2CC=C(C)C | 0.5325%
- CCC(=O)N1CCc2c(O)nc(C3CCCCN3C(=O)C3CC3)nc2C1 (configuration not stated) | 7.964%
- O=C(c1cc(Cl)c2c(c1)OCO2)N1CCCC(n2cncn2)C1 (configuration not stated) | 7.941%
- Cc1cc(C(=O)N2CCCC(c3cc(C(F)(F)F)[nH]n3)C2)[nH]n1 (configuration not stated) | 1.889%
- COc1cccc(CN2CC(O)CN(C(=O)C3CCC3)CC2=O)c1OC (configuration not stated) | -2.18%
- Cl.O=C(Nc1ccc(F)cc1)C(c1ccccc1)N1CCOCC1 (configuration not stated) | -10.29%
- CN1CCOC(CNCc2coc(-c3ccccc3Cl)n2)C1 (configuration not stated) | 2.137%
- O=C(NCC(=O)N1CCCCC1)c1ccc(Cl)cc1I | -1.059%
- COCC(=O)NCCc1nc2cc(-c3ccc(OC)cc3)ncn2n1 | 8.598%
- COc1ccc(NC(=O)CCc2c(C)nc3cc(O)nn3c2C)cn1 | 7.359%
- O=C(O)CC(O)(CC(=O)O)C(=O)O.OC1CCN(Cc2ccnc(-c3cccnc3)n2)CC1 | -11.33%
- CN(C)C(=O)c1c[nH]nc1C1CCN(S(=O)(=O)c2cccc(Cl)c2)CC1 | -10.61%

The last 2 entries again:

Compound	percent effect
O=C(O)CC(O)(CC(=O)O)C(=O)O.OC1CCN(Cc2ccnc(-c3cccnc3)n2)CC1	-11.33%
CN(C)C(=O)c1c[nH]nc1C1CCN(S(=O)(=O)c2cccc(Cl)c2)CC1	-10.61%

From ChEMBL document CHEMBL3988442, “University of Dundee, Small-Polar-MMV Screening Library” (2021).